The results in this text go back to PMC9940367.

Amino acid sequences for entries named in this document (tags omitted).
UniProt O00327: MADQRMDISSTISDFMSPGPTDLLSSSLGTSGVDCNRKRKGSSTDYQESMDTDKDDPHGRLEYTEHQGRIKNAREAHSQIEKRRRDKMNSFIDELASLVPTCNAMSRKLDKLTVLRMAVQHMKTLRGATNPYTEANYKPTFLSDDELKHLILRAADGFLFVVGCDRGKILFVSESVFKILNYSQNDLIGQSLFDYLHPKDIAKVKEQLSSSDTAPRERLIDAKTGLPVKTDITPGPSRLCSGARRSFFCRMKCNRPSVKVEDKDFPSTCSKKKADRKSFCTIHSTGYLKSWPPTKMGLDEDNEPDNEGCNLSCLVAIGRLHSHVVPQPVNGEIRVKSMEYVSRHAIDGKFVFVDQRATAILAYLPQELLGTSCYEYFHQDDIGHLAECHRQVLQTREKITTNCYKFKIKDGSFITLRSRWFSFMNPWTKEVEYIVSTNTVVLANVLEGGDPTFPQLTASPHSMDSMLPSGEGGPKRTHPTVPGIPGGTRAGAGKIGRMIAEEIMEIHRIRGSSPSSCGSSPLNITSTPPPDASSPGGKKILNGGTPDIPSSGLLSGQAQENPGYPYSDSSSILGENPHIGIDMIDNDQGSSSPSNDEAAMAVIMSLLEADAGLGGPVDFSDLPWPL

For assay [1], the target named is p53 (endogenous, HBE cells) (human (endogenous in HBE)) (UniProt P04637). As to the kind of experiment: co-IP; endogenous proteins in HBE lysate; precipitated with anti-p53, anti-BMAL1 or anti-IgG antibody and protein A/G magnetic beads at 4 °C; blots with anti-p53 or anti-BMAL1.
For assay [2], the target named is Flag-p53 (pcDNA3.1-p53-Flag) (UniProt P04637). Nature of the assay: co-IP; HEK293T cotransfected with Flag-p53 and HA-BMAL1 for 72 h; lysate precipitated with anti-Flag, anti-HA or anti-IgG antibody and protein A/G magnetic beads at 4 °C; blots with anti-HA or anti-Flag.

These are yes or no findings as the source states them, for the method shown. Binding seen in cells or lysates may run through a third protein. Some entries that bind do so weakly or less than the wild type.

With “BMAL1 (endogenous, HBE cells) (from UniProt O00327 1-626)”, in assay [1], the binding result is “binds”.
On to “HA-BMAL1 (pcDNA3.1-BMAL1-HA) (from UniProt O00327 1-626)”, for which, in assay [2], the binding result is recorded as “binds”.
